## Library screen at single concentrations

The filed quantity is “Percent Effect” (%). The controls that fix the scale are not given in the record; negative values are as filed. This is an unselected part of the compounds tested.

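Assay of Toxoplasma gondii numbers, read through their beta-galactosidase reporter with a colour substrate. Tested at 50 µM. The record gives no direction; the compounds picked for IC50 retests had high values, so higher reads as fewer parasites. About 18,000 compounds were tested under these conditions; 0.94% (about 170) showed 50% or more at least once.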

| SMILES | percent effect |
|---|---|
| `COc1c(C)cc(C(=O)N[C@@H]2CC[C@@H](N)C2)cc1C` | 4.031 |
| `Cc1noc(C)c1CC(=O)N1CCN(S(C)(=O)=O)CC1` | -3.644 |
| `OCc1nc(N2CCSCC2)c2ccccc2n1` | -2.921 |
| `CCC[C@H]1CN(C(=O)c2cccc(COC)n2)C[C@@H]1N` | -7.454 |
| `COC(=O)c1[nH]cc(-c2ccccc2)c1N` | 60.81 |
| `O=C(COc1ccc(C(F)(F)F)cc1)NCCCO` | 4.208 |
| `O=C1Nc2ccccc2NC12CCN(CC1CC1)CC2` | -2.594 |
| `Cc1cc(C(=O)N(C)c2ccccc2)on1` | -25.74 |
| `CCOCCNC(N)=O` | 4.06 |
| `NC(=O)CC1Nc2ccccc2NC1=O` (centres unmarked) | 3.008 |
| `CN1CC(CO)OC1=O` (centres unmarked) | -0.172 |
| `CC1Oc2ccc(Cl)cc2NC1=O` (centres unmarked) | 10.27 |
| `Cc1cc(C(=O)NC(C)c2ccncc2)ncn1` (centres unmarked) | 8.375 |
| `CCC(N)(CC)CNS(=O)(=O)c1cccc2nonc12` | -0.7852 |
| `Cc1ccncc1NC1CS(=O)(=O)c2ccccc21` (centres unmarked) | -6.25 |
| `CN1CCC(CNC(=O)CNS(=O)(=O)c2cccs2)C1` (centres unmarked) | -4.867 |
| `COCCNC(=O)Cc1c(C)[nH]c2ccccc12` | 10.58 |
| `COC1CCN(CC(=O)N(C)CC(F)(F)F)CC1` | 9.977 |
| `Cc1ccc(CNCCNCCO)s1` | 2.261 |
| `Cc1ccc(CN(C)C(=O)Cn2cnnn2)o1` | 88.2 |
| `CC(=O)NCCC(=O)N1c2ccccc2CC1C` (centres unmarked) | 4.494 |
| `COCCCOC1CN(C(=O)c2cccnc2)C1` | 6.412 |
| `CC1=C(C(=O)N(C)C)C(c2ccccc2F)NC(=O)N1` (centres unmarked) | -2.501 |
| `COCC1(C(=O)N[C@@H]2CCOC[C@H]2O)CC1` | -5.886 |
| `CCCn1ccnc1CNC(=O)CCNS(C)(=O)=O` | -5.274 |
| `C=C(C)CNC(=O)Nc1ccc(-n2cnnn2)c(C)c1` | 31.81 |
| `O=C(C1CC(c2ccc(Cl)s2)=NO1)N1CCCSCC1` (centres unmarked) | -11.53 |
| `O=C1NC[C@H]2NCCC[C@@H]12` | -10.77 |
| `NS(=O)(=O)NCc1ccc2c(c1)OCO2` | -4.446 |
| `O=C(NCCc1cn[nH]c1)C(O)c1ccc(Cl)cc1` (centres unmarked) | -9.07 |
| `Cc1nnc(CCNC(=O)Cn2nccc2C)s1` | -5.791 |
| `CN(C)c1ncc(CO)n1C` | -4.226 |
| `CCN1CCN(c2ccc(CN)cc2F)CC1` | 14.51 |
| `CSCC(=O)NCCc1noc(C(F)(F)F)n1` | -12.88 |
| `CC(C)(C)NC(=O)CNC(C)(C)c1nccs1` | -6.241 |
| `COc1ccc(NCC(=O)N2CCNC(=O)C2)c(C)c1` | 52.04 |
| `Cc1cnn(C(=O)c2nn(C)c(C)c2Cl)c1` | -15.52 |
| `Cc1c(Br)cccc1C(=O)N(C)CCNS(C)(=O)=O` | -7.342 |
| `Cc1cccc(NCCC(=O)NC2CCCC2)n1` | -7.549 |
| `Cc1ccc(C(C)CNC(=O)CCS(C)(=O)=O)cc1` (centres unmarked) | 5.1 |
| `CCO[C@H]1CN(Cc2cccc(F)c2OC)C[C@@H]1O` | -4.815 |
| `Cc1cc(CN2CCC[C@H]2C(=O)N2CCOCC2)on1` | -3.422 |
| `Cc1nc(CC(=O)NCCN2CCNC2=O)c(C)s1` | -2.42 |
| `CCC[C@H]1CN(S(=O)(=O)Cc2ccc(F)cc2)C[C@@H]1N` | 6.43 |
| `Cc1nnc(SCCCNC(=O)CC2CCCN2C)s1` (centres unmarked) | 3.093 |
| `COCCC(=O)NC1CCN(CC2CCCC2)C1` (centres unmarked) | -1.675 |
| `CC(C)(C)OCC(O)CN1CCCCC1` (centres unmarked) | -3.44 |
| `CCC1(N)CCCC1` | -7.397 |
| `Cc1ccc(NC(=O)CN(C)C(=O)C(C)C)cc1` | 4.057 |
| `OCC(O)CNc1ccnc2ccc(Cl)cc12` (centres unmarked) | 2.927 |
| `CCC(C)OCC(=O)N1CCOc2nc(C)ccc21` (centres unmarked) | -5.067 |
| `O=C(CC1Sc2ccc(Cl)cc2NC1=O)OCCO` (centres unmarked) | 5.971 |
| `CCCN1CCN(c2ccccn2)CC1` | 14.98 |
| `CSc1cncc(NCCC(=O)N2CCCC2)n1` | -7.709 |
| `CC(=O)[C@@H]1CCCCN1` | 4.03 |
| `Cc1ncsc1CCCNC(=O)CNC(=O)N(C)C` | 5.448 |
| `CCc1nc(CCNC(=O)[C@@H](N)C(C)(C)C)no1` | -21.7 |
| `C=C(C)CNC(=O)Nc1cc(F)cc(OC)c1` | -8.502 |
| `CCNc1ncc(C(=O)N2CCCCC2)s1` | 3.681 |
| `O=S(=O)(NC1CCCNC1)c1cccc(F)c1` (centres unmarked) | 31.65 |
| `COc1cccc(CNS(=O)(=O)Cc2ccon2)c1` | -3.823 |
| `Cn1cc(CNCC(=O)NCc2ccco2)cn1` | -22.98 |
| `Cc1nccn1-c1ccc(NCc2ncc[nH]2)cc1F` | -8.563 |
| `CCN1CCN(CC(C)CNc2cccc(C)n2)CC1` (centres unmarked) | 11.93 |
| `NS(=O)(=O)N1CCC(NC(=O)CC2CCCCC2)CC1` | 7.873 |
| `CCN1CCC(NC(=O)c2c(C)noc2C(C)C)CC1` | 6.123 |
| `CCn1ccnc1CN(C)CC(=O)N(C)C` | 12.84 |
| `CN(C)c1ccc(C2NCCc3[nH]cnc32)cn1` (centres unmarked) | -19.17 |
| `Cn1cc(-c2csc(C3CCCO3)n2)cn1` (centres unmarked) | -2.968 |
| `CC(C)(CSc1cc(C#N)ccn1)CS(C)(=O)=O` | -9.643 |
| `CN(c1ccccc1F)S(=O)(=O)CC1CCCOC1` (centres unmarked) | 1.111 |
| `CN(C)C(CN)C1CCCCC1` (centres unmarked) | -1.833 |
| `NCCc1ccnc(N)c1` | 0.3187 |
| `CCOC(=O)CS(=O)(=O)Cc1ccccc1` | 4.004 |
| `CC(C)(C)[C@H](N)CO` | -2.684 |
| `Cc1cnn(CCNC(=O)CCCN2CCCCC2)c1` | 6.787 |
| `Cn1cc(CNC(=O)c2c(Br)cnn2C)cn1` | -33.3 |
| `CCC(C)[C@H](NC(=O)N1CCCC1)C(N)=O` (some centres unmarked) | 5.634 |
| `C=C(Cl)COC(=O)c1n[nH]c(=O)c2ccccc12` | -5.972 |
| `CCNCC(C)(O)c1ccccc1` (centres unmarked) | -23.5 |
| `Cc1cc(C(=O)NCC(CO)c2ccccc2)ns1` (centres unmarked) | -3.842 |
| `Cc1cnccc1NCCNC(=O)c1ccccc1Cl` | 18.95 |
| `O=C(CN1C(=O)CC2(CCCCC2)C1=O)c1ccc[nH]1` | 0.6188 |
| `NCc1ccc2sccc2c1` | 8.439 |
| `NC(=O)COC(=O)c1cc(Cl)cc(C(F)(F)F)c1` | -16.81 |
| `NC(c1ccccc1)C1CCOCC1` (centres unmarked) | -0.3953 |
| `CN(CCOCCO)CCOc1ccc(F)cc1` | 15.3 |
| `CN(Cc1nnc2n1CCC2)C(=O)c1ccc(Cl)s1` | -9.436 |
| `CN(C)S(=O)(=O)N(CCO)CC(C)(C)C` | -12.23 |
| `O=C(NC1CC1)c1ccc(Cn2cncn2)cc1` | 5.977 |
| `Cc1cccc2c1OCCC2N` (centres unmarked) | -3.625 |

Some entries from above, unchanged:

| SMILES | percent effect |
|---|---|
| `CN(C)C(CN)C1CCCCC1` (centres unmarked) | -1.833 |
| `CCC[C@H]1CN(S(=O)(=O)Cc2ccc(F)cc2)C[C@@H]1N` | 6.43 |
| `CCC(N)(CC)CNS(=O)(=O)c1cccc2nonc12` | -0.7852 |
| `Cc1cc(CN2CCC[C@H]2C(=O)N2CCOCC2)on1` | -3.422 |
| `CCOC(=O)CS(=O)(=O)Cc1ccccc1` | 4.004 |
| `Cc1nccn1-c1ccc(NCc2ncc[nH]2)cc1F` | -8.563 |

Measurements from “University of Dundee, Small-Polar-MMV Screening Library” (2021), ChEMBL document CHEMBL3988442.